Record: PubChem BioAssay AID602196 (INSERM, 2012)
Assay: 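Knock-downs that protect lung cancer cells from cisplatin or sensitise them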. Cells: human A549 lung cancer cells. Reagent: siRNA pair against human genes. Duration: 48 h transfection before cisplatin; time from cisplatin to read-out not stated. Conditions: cisplatin at a dose killing half of control-siRNA cells; exact dose and duration not given. Detection: 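Shift in cisplatin death relative to control siRNA, from -50 (all cells die) to +50 (no cells die); siRNAs harmful on their own scored 0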. Direction: two-siRNA summed score (-2 to +2): higher = both siRNAs protect from cisplatin killing; -2 means both sensitise; mean protection from cisplatin (shift in death): higher = protection from cisplatin killing. Active means: 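siRNAs harmful alone (LDH or WST-1) get 0; others get +1 for less and -1 for more cisplatin killing; genes are active when the two siRNAs give the same sign, summing to ±2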. Calls: active = both siRNAs shift cisplatin killing the same way; inactive = no consistent shift, or siRNA harmful alone.
Shown is an unselected part of about 23,000 reagents tested. 455 of all reagents (2%) count as active. 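Active includes both protection and sensitisation; some change values fall well beyond the stated -50 to +50 range.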 Unmarked entries are inactive. The numbers tell different reagents against one gene apart. Not all columns of the deposit are shown. Not stated in the record: the amount of reagent.

The opening 3 entries, to show the layout:
| target | reagent no. | two-siRNA summed score (-2 to +2) | mean protection from cisplatin (shift in death) (%) |
| --- | --- | --- | --- |
| SPIC | 1 | 0 | 2.8 |
| CRACR2B | 1 | 0 | 13.9 |
| RUBCN | 1 | 1 | 9.8 |

Main list, from the first entry:
| target | reagent no. | two-siRNA summed score (-2 to +2) | mean protection from cisplatin (shift in death) (%) |
| --- | --- | --- | --- |
| SPIC | 1 | 0 | 2.8 |
| CRACR2B | 1 | 0 | 13.9 |
| RUBCN | 1 | 1 | 9.8 |
| ALCAM | 1 | -1 | -15.7 |
| SV2C | 1 | 0 | -2.3 |
| RAD51C | 1 | 1 | 17.6 |
| KLHL6 | 1 | 1 | 8.1 |
| FAN1 | 1 | 1 | 10.5 |
| MUC13 | 1 | -1 | -5.2 |
| POLN | 1 | 0 | 9.9 |
| LOC441379 | 1 | 0 | 1.4 |
| PDS5A | 1 | 0 | 1.3 |
| TRERF1 | 1 | 0 | 3.4 |
| LINC00938 | 1 | 1 | 7 |
| LOC441672 | 1 | 0 | -3.3 |
| ELP2 | 1 | 0 | -0.5 |
| ADAMTS8 | 1 | -1 | -17.1 |
| PLPP4 | 1 | 0 | 24.3 |
| LHFPL5 | 1 | 2 (active) | 17.4 |
| TNS1 | 1 | 0 | -0.1 |
| IFI27 | 1 | 1 | 15.7 |
| FAM106A | 1 | 0 | 1.5 |
| SP5 | 1 | 0 | 10.4 |
| IZUMO4 | 1 | -1 | -11.5 |
| TUBB8 | 1 | 0 | 9.4 |
| POTED | 1 | 0 | -0.2 |
| LOC441501 | 1 | 0 | 6.2 |
| FLJ45337 | 1 | 0 | 0.2 |
| KIF23 | 1 | 0 | 4.8 |
| TPT1P9 | 1 | 1 | 12.4 |
| NEXMIF | 1 | 2 (active) | 23.2 |
| DDN | 1 | 2 (active) | 15.1 |
| TRIM56 | 1 | 0 | 7.6 |
| BLTP1 | 1 | 1 | 0.5 |
| CYP2B6 | 1 | 0 | -0.3 |
| LOC442165 | 1 | -1 | -2.3 |
| NUBP2 | 1 | -1 | 1.5 |
| AACS | 1 | 0 | 5.4 |
| LOC389768 | 1 | 0 | 29.8 |
| SSH2 | 1 | -1 | -12.2 |
| LOC284422 | 1 | 0 | 7.3 |
| AEBP2 | 1 | 0 | 1.8 |
| DNAJC21 | 1 | 0 | 15.2 |
| DNAJC21 | 2 | 1 | 11.7 |
| DDC | 1 | 0 | 3.4 |
| GPSM1 | 1 | 0 | -6.3 |
| LOC388300 | 1 | 0 | 1.2 |
| LOC388204 | 1 | 0 | 5.3 |
| SHLD1 | 1 | 0 | -9.1 |
| MAL2 | 1 | 0 | -9.8 |
| LOC149704 | 1 | 0 | -3.2 |
| NBPF14 | 1 | 1 | 39.7 |
| NPY6RP | 1 | 0 | 3.4 |
| LOC391528 | 1 | 1 | 36.8 |
| FHOD1 | 1 | 0 | 9.3 |
| LOC91461 | 1 | 1 | 12.1 |
| TRAPPC11 | 1 | 0 | 3.2 |
| TAP2 | 1 | 0 | 5.2 |
| FGF22 | 1 | 0 | -2 |
| CBX5 | 1 | 0 | 11.6 |
| INSL5 | 1 | 1 | 8.1 |
| LOC441526 | 1 | 0 | 4.1 |
| TRPM6 | 1 | 0 | 2 |
| SLC1A2 | 1 | 0 | -3.3 |
| OR10A2 | 1 | -2 (active) | -16 |
| SEMA6D | 1 | 1 | 3.3 |
| LOC440702 | 1 | 0 | 9.7 |
| METRNL | 1 | 0 | 19.5 |
| CCDC6 | 1 | 0 | 8.1 |
| WDR26 | 1 | 0 | 2.7 |
| LOC442049 | 1 | 0 | 14.3 |
| LOC399924 | 1 | 0 | 4.7 |
| MYOM3 | 1 | 0 | -2.6 |
